The target in the assay is human-mouse hybrid CD40 (hmCD40) (human; mouse) (UniProt P25942+P27512). The assay can be described thus: co-immunoprecipitation with anti-hCD40 from membrane microdomains of hCD154-stimulated CH12.LX cells, Western blot for TRAF6.

Amino acid sequences for entries named in this document (tags omitted). A change or cut given only in a name is not applied to a line headed by its entry.
UniProt P25942: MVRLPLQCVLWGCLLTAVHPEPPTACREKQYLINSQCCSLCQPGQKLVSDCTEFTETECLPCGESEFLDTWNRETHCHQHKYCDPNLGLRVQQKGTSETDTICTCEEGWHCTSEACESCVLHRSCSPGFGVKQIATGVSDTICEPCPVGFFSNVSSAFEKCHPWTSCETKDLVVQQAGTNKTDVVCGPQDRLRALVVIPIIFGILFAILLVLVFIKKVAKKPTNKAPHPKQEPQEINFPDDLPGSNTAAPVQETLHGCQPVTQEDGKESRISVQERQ
UniProt P27512: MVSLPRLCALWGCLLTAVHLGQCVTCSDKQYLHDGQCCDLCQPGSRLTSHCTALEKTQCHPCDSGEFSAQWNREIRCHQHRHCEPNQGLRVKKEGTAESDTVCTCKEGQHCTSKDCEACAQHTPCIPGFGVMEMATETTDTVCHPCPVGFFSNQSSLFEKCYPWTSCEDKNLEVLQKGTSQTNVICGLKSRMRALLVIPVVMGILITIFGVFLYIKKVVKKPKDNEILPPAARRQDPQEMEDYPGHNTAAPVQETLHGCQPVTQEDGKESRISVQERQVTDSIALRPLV

No constants are given. Whether binding was seen depends on the method and setting. In cells and extracts the contact can be indirect. Some results given as binding are weak or reduced against the parent protein; the word gives no strength.

B1: TRAF6 (protein, mouse, UniProt P70196 1-530, looked up)
chain: MSLLNCENSCGSSQSSSDCCAAMAASCSAAVKDDSVSGSASTGNLSSSFMEEIQGYDVEFDPPLESKYECPICLMALREAVQTPCGHRFCKACIIKSIRDAGHKCPVDNEILLENQLFPDNFAKREILSLTVKCPNKGCLQKMELRHLEDHQVHCEFALVNCPQCQRPFQKCQVNTHIIEDCPRRQVSCVNCAVSMAYEEKEIHDQSCPLANIICEYCGTILIREQMPNHYDLDCPTAPIPCTFSVFGCHEKMQRNHLARHLQENTQLHMRLLAQAVHNVNLALRPCDAASPSRGCRPEDPNYEETIKQLESRLVRQDHQIRELTAKMETQSMYVGELKRTIRTLEDKVAEMEAQQCNGIYIWKIGNFGMHLKSQEEERPVVIHSPGFYTGRPGYKLCMRLHLQLPTAQRCANYISLFVHTMQGEYDSHLPWPFQGTIRLTILDQSEALIRQNHEEVMDAKPELLAFQRPTIPRNPKGFGYVTFMHLEALRQGTFIKDDTLLVRCEVSTRFDMGGLRKEGFQPRSTDAGV
B1: the binding result is recorded as “binds”.
